Experimental data published in PubChem BioAssay AID2685 (National Center for Advancing Translational Sciences (NCATS), 2010).
Where “and” joins values, the source holds several entries; their conditions need not be identical. Identical values can stand only once. The list shows a part of the results. Shown are side measurements of this screen, not its main read-out; they come without a call. Compounds called inactive in the main read-out are mostly missing here. The note in brackets gives the kind of curve behind each potency; many fits are weak.

Test: qHTS Assay for Lipid Storage Modulators in Drosophila S3 Cells;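 on cell number change: cells counted by Cell Tracker Red CMTPX staining in the red channel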
Conditions: BODIPY lipid droplet fluorescence, 18-24 h; for cell number change: measured here: cell count max response, cells fed with added oleic acid
Summary of the method: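 Drosophila S3 cells got compounds at several concentrations plus oleic acid (400 uM solution). Laser-scanning cytometry with 488 nm excitation read lipid droplets at 500-530 nm and cells at 575-640 nm. Percent activity was relative to 20 uM Triacsin C.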

[1] = measured here: cell number channel AC50, cells fed with added oleic acid
[2] = measured here: lipid fluorescence (Fed channel) AC50, cells fed with added oleic acid

| Compound | cell number change | AC50 [1] | AC50 [2] |
| --- | --- | --- | --- |
| COc1ccc(C(=O)NCCNc2ccc([N+](=O)[O-])cn2)cc1 | 21.6% | – | – |
| Cc1cc(-c2cccs2)c(C#N)c(=S)[nH]1 | 5.34% | – | – |
| CCCCc1nn2c(N)c(/C=C3\C=Nc4ccccc43)c(=O)nc2s1 | 2.61% | – | – |
| CCC(C)c1ccc(NC(=O)C2CC2)cc1 (stereo not given) | – | 6.51 µM [rising, single point] | – |
| COc1ccc(S(=O)(=O)N(C(=O)c2ccco2)c2cc3sc(=O)oc3c3ccccc23)cc1 | -23.2% | – | 29.1 µM [falling, single point] |
| CCN1CCN(C(=O)c2ccccc2N(Cc2ccccc2)S(=O)(=O)c2ccc(C)cc2)CC1 | -8.29% | 1.03 µM [rising, partial curve, poor fit] | – |
| O=C(c1ccco1)N1CCCSC1=Nc1ccccc1 | 2.63% | – | – |
| COc1ccc(NC(=O)Nc2cccc(C)n2)c(OC)c1 | -9.72% | – | – |
| CCC1=NN2C(=N)/C(=C\c3ccc(OCCOc4ccccc4OC)cc3)C(=O)N=C2S1 | 21.7% | – | 29.1 µM [rising, single point] |
| O=C(Nc1cccc(-c2cccc(F)c2)c1)C1CCN(Cc2ccco2)CC1 | 36.3% | 4.61 µM [rising, full curve] | 6.51 µM [rising, single point] |
| Cc1ccc(CCNS(=O)(=O)c2cc3c(cc2Cl)NC(=O)CO3)cc1 | 1.73% | – | 0.0461 µM [rising, full curve, poor fit] |
| O=C(COC(=O)/C=C/c1ccccc1)NCCC1=CCCCC1 | 21% | – | 0.13 µM [rising, partial curve, poor fit] |
| CC1CC2C3CCC4=CC(=O)C=CC4(C)C3(F)C(O)CC2(C)C1(O)C(=O)CO (stereo not given) | 9.3% | 0.461 µM [rising, partial curve, poor fit] | 0.58 µM [rising, full curve] |
| O=C(OCc1ccco1)c1ccc(S(=O)(=O)N2CCCCC2)cc1 | -8.09% | – | – |
| COc1ccc(-n2c(N)c(Br)c(=O)[nH]c2=O)cc1 | -2.91% | – | 0.461 µM [falling, full curve, poor fit] |
| COc1cccc(-c2ccc3ncnc(NCc4cc(C)cs4)c3c2)c1 | 5.95% and 10.6% | 0.651 µM [falling, single point] | 6.51 µM [rising, partial curve, poor fit] and 29.1 µM [falling, single point] |
| CCOc1ccccc1N(CC(=O)NCCSc1ccccn1)S(=O)(=O)c1ccc(C)cc1 | -23.1% | – | – |
| Cc1nnc2c(NCCC(C)C)nc3ccccc3n12 | 20.4% | – | – |
| CCn1ncc(Br)c1C(=O)Nc1ccc(-c2ccno2)cc1 | 30.1% | 1.3 µM [rising, full curve, poor fit] | 29.1 µM [rising, single point] |
| CCOC(=O)C1=C(O)CCn2c1nc1ccccc12 | – | – | 4.61 µM [falling, partial curve] |

| Compound | cell number change | AC50 [1] | AC50 [2] |
| --- | --- | --- | --- |
| Cc1ccccc1NC(=O)c1ccc2nc(N3CCOCC3)sc2c1 | 8.98% | – | 0.731 µM [rising, full curve] |
| O=C(NC1=NCCS1)C1CC(=O)N(c2ccc(Cl)cc2)C1 (stereo not given) | 31.7% | – | – |
| COc1ccc(-c2sc(Nc3ccccc3)n[n+]2-c2ccc(F)cc2)c(C)c1C | 16.2% | – | 6.51 µM [rising, single point] |
| Cc1ccc(C)c(S(=O)(=O)N2CCN(C(=O)Cc3c(F)cccc3Cl)CC2)c1 | 91.2% | 9.2 µM [rising, partial curve] | – |
| O=c1cc(N2CCCCC2)c(-c2ccccc2)nn1Cc1ccc(Cl)cc1Cl | -22.1% | – | 23.1 µM [falling, single point] |
| CCCc1nn(C)c(C(=O)Nc2cccc3ccccc23)c1Cl | 26.9% | – | 11.6 µM [rising, partial curve, poor fit] |
| CC(C)(C)c1ccc(-c2noc(-c3ccno3)n2)cc1 | -33% | 29.1 µM [falling, single point] | 29.1 µM [falling, single point] |
| CCCN(CCC)CCCn1c(=O)[nH]c2ccccc21 | 1.47% | – | – |
| Cc1sc2ncn(CC(=O)NCCCC(=O)Nc3ccc(C(C)C)cc3)c(=O)c2c1C | 59.1% | 25.9 µM [rising, single point] | – |
| CCN(CC)S(=O)(=O)c1cc(C(=O)OCC(=O)Nc2c(F)cccc2F)ccc1F | -13.8% | 2.31 µM [falling, single point] | – |
| CCC(=O)NCCc1nc2ccccc2n1CC | -4.41% | – | 6.51 µM [rising, single point] |
| CCOc1ccc(S(=O)(=O)Nc2ccccc2C(=O)N2CCCC2)cc1 | -25.9% | 0.291 µM [falling, full curve, poor fit] | 4.11 µM [falling, full curve, poor fit] |
| COc1cc2[nH]c(=S)n(C3CCCC3)c(=O)c2cc1OC | -11.2% | – | 2.91 µM [rising, single point] |
| COC(=O)CNc1cc(S(=O)(=O)N2CCCCC2)ccc1Oc1ccc(C(=O)OC)cc1 | 29.5% | 0.651 µM [rising, full curve] | – |
| CC(C)(C)c1ccc(Cn2nnc3c(=O)[nH]c(C4CCCN(C(=O)Cc5cccs5)C4)nc32)cc1 (stereo not given) | 2.53% | – | 5.17 µM [rising, single point] |
| O=C(COc1ccc2c(-c3ccccc3)cc(=O)oc2c1)NCCCN1CCOCC1 | 11.6% | – | 29.1 µM [rising, single point] |
| COc1ccc2nc(NNC(=O)COc3ccccc3)sc2c1 | 15.7% | – | 0.0291 µM [rising, full curve, poor fit] |
| Cc1ccc(C(=O)NCC(=O)N2CCN(c3ccccc3)CC2)cc1 | -14% | – | 18.4 µM [rising, single point] |
| CCOCCCN1C(=O)C(=O)N(CC(=O)N2c3ccccc3NC(=O)CC2C)C1=O (stereo not given) | -17.9% | – | 3.26 µM [rising, single point] |
| CN=C1S/C(=C\c2ccc(N3CCOCC3)c(F)c2)C(=O)N1C | 53.1% | 1.84 µM [rising, full curve] | 4.11 µM [rising, partial curve] |
